Results are given in words; binding and its absence hold for the method and conditions named. In cells and extracts the contact can be indirect. Some results given as binding are weak or reduced against the parent protein; the word gives no strength.
What was measured:
[1] = biological target: transcription factor Sp3 (Sp3), endogenous (mouse) (UniProt O70494); assay: co-immunoprecipitation (anti-Flag) from transfected N2A cells, western blot
[2] = biological target: histone deacetylase 2 (HDAC2), endogenous, mouse brain tissue (mouse) (UniProt P70288); assay: co-IP with anti-HDAC2 antibody from mouse cortex, western blot with anti-Tdp2

Amino acid sequences for entries named in this document (tags omitted).
UniProt O70494: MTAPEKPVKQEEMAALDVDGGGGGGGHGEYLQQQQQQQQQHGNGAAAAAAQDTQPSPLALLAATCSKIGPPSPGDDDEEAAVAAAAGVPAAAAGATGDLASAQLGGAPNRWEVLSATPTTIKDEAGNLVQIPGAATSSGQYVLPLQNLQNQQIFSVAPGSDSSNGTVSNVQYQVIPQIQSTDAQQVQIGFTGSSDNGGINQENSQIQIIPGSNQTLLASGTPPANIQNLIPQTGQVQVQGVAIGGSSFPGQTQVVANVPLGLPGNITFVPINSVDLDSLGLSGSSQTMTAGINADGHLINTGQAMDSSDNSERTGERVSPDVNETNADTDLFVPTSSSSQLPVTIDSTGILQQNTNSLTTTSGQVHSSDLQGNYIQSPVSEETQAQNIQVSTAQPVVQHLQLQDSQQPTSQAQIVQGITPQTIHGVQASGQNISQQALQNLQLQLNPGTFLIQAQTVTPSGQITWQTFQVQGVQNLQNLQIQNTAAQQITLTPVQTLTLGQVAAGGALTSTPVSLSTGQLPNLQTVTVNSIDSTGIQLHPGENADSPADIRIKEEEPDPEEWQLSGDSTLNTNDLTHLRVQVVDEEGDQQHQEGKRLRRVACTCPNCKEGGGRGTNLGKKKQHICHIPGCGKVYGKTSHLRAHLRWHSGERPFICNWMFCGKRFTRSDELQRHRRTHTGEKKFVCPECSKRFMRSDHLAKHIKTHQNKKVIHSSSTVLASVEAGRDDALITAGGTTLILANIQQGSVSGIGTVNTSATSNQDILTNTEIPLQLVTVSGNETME

Row | binding [1] | binding [2] | Binder
1 | binds |  | C-terminal domain of HDAC2 (termed 2C) fused with mCherry, flag-tagged (other, UniProt Q92769 390-488, looked up, The part order follows the printed name 'mCherry-2C'; the Flag position is unknown; also called mCherry-2C; HDAC2 C-terminal fragment (2C); not shown: Flag tag; mCherry (engineered red fluorescent protein)) VHEDSGDEDGEDPDKRISIRASDKRIACDEEFSDSEDEGEGGRRNVADHKKGAKKARIEEDKKETEDKKTDVKEEDKSKDNSGEKTDTKGTKSEQLSNP
2 |  | binds | Tdp2 (protein, mouse, UniProt Q9JJX7 1-370, looked up) MASGSSSDAAEPAGPAGRAASAPEAAQAEEDRVKRRRLQCLGFALVGGCDPTMVPSVLRENDWQTQKALSAYFELPENDQGWPRQPPTSFKSEAYVDLTNEDANDTTILEASPSGTPLEDSSTISFITWNIDGLDGCNLPERARGVCSCLALYSPDVVFLQEVIPPYCAYLKKRAASYTIITGNEEGYFTAILLKKGRVKFKSQEIIPFPNTKMMRNLLCVNVSLGGNEFCLMTSHLESTREHSAERIRQLKTVLGKMQEAPDSTTVIFAGDTNLRDQEVIKCGGLPDNVFDAWEFLGKPKHCQYTWDTKANNNLRIPAAYKHRFDRIFFRAEEGHLIPQSLDLVGLEKLDCGRFPSDHWGLLCTLNVVL
